Columns and labels:
[1] = test system: Histoplasma capsulatum; format: cell-based
[2] = test system: rats
[3] = test system: mice

C=CCc1ccc(O)c(OC)c1.CCN(CC)CC(=O)Nc1c(C)cccc1C [novel compound, N-[N′-(carboxymethylenyl-2,6-dimethyl-aniline)-N,N-diethylammonium]-[2′-methoxy-4′-(2′-propenyl)]-phenolate]
R (evaluation of the results by zone diameter) [1]: ES (key: 0 mm-4 mm: resistant: R; 5 mm-9 mm: moderately sensitive: MS; 10 mm-15 mm: sensitive: S; 16 mm-20 mm: very sensitive: VS; 21 mm and more: extremely sensitive: ES) | toxicity in the applied doses ([2]; orally (p.o.)): low toxic | oral LD50 ([2]; p.o.): over 2,250 μL/kg | lethality ([2]; p.o., doses up to 2,250 μL/kg): No rats ended lethally | toxicity in the applied doses ([3]; orally (p.o.)): low toxic | oral LD50 ([3]; p.o.): over 2,000 μL/kg

From patent publication US20240374736A1, “INHALED LIQUID FOR THE TREATMENT OF RESPIRATORY INFECTIONS IN HUMANS CAUSED BY PATHOGENS RESISTANT TO ANTIBIOTICS” (priority 2023, published 2024)
